Laboratory results published in US20210252265A1, “DEVICES AND METHODS FOR ULTRASONIC DELIVERY OF AN AGENT WITHIN AN ORAL CAVITY” (Suono Bio, Inc., priority 2018, published 2021).
At least one structure is not confirmed: it was looked up by name or label, or the drawing left a doubt.

System: oral inflammatory lesions in hamster cheek pouches
Assay: Treatment of acetic acid-induced oral inflammatory lesions in hamster cheek pouches
Assay type: in vivo, Golden Syrian hamsters
Protocol: FIG. 10 is a schematic of the procedure used to test delivery of budesonide to treat or prevent ulcers induced by acetic acid in hamster cheek pouches. 50% acetic acid was administered for 60 seconds. Male Golden Syrian hamsters weighing 100-120 g (Charles River Laboratories, Wilmington, Mass.) were used as received and randomly assigned to experimental groups by the researchers performing the work. To limit pain and distress, all animals received buprenorphine sustained release (SR) (subcutaneous administration, 1 mg/kg body weight, compounded by ZooPharm) just prior to the application of acetic acid for the induction of the oral lesion on day 0. All manipulations occurred with the animal under general anesthesia by inhaled isoflurane. Experimental treatment groups included topical application of budesonide solution with (Budesonide+US) and without (Budesonide) ultrasound. A positive disease control receiving no treatment was also included (Disease). Treatment was administered on day 0 immediately prior to lesion induction using acetic acid. […] On every subsequent day, the cheek pouches were everted to reveal the lesion and an image captured to quantify lesion size. […] Lesion size was measured using ImageJ (National Institutes of Health, Bethesda, Md.). […]

CCCC1O[C@@H]2C[C@H]3[C@@H]4CCC5=CC(=O)C=C[C@]5(C)[C@H]4[C@@H](O)C[C@]3(C)[C@]2(C(=O)CO)O1 (some centres unmarked) [Budesonide]
peak severity of oral lesions (budesonide in combination with ultrasound): significantly reduced
effect on peak severity of oral lesions (topical budesonide alone, without ultrasound): no beneficial effect
